Reference: PMC8169803

By UniProt entry, the sequences of proteins in these tests, tags left out.
UniProt Q99496: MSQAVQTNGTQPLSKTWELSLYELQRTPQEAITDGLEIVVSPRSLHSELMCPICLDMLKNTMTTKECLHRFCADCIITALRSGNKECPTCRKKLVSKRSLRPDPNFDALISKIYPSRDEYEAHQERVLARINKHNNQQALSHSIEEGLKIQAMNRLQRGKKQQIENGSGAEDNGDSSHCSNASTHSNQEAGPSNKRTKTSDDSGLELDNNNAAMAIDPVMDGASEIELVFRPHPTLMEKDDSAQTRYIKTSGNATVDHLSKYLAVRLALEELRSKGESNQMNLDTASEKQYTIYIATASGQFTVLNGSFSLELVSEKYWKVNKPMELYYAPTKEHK
UniProt Q9BSM1: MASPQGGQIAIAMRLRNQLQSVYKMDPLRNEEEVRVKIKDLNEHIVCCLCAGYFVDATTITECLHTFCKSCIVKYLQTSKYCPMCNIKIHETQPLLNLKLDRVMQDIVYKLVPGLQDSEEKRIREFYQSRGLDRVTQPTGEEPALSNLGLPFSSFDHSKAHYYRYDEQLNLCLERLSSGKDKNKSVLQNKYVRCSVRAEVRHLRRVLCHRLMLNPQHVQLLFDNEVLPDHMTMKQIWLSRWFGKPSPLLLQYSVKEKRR
UniProt Q93009: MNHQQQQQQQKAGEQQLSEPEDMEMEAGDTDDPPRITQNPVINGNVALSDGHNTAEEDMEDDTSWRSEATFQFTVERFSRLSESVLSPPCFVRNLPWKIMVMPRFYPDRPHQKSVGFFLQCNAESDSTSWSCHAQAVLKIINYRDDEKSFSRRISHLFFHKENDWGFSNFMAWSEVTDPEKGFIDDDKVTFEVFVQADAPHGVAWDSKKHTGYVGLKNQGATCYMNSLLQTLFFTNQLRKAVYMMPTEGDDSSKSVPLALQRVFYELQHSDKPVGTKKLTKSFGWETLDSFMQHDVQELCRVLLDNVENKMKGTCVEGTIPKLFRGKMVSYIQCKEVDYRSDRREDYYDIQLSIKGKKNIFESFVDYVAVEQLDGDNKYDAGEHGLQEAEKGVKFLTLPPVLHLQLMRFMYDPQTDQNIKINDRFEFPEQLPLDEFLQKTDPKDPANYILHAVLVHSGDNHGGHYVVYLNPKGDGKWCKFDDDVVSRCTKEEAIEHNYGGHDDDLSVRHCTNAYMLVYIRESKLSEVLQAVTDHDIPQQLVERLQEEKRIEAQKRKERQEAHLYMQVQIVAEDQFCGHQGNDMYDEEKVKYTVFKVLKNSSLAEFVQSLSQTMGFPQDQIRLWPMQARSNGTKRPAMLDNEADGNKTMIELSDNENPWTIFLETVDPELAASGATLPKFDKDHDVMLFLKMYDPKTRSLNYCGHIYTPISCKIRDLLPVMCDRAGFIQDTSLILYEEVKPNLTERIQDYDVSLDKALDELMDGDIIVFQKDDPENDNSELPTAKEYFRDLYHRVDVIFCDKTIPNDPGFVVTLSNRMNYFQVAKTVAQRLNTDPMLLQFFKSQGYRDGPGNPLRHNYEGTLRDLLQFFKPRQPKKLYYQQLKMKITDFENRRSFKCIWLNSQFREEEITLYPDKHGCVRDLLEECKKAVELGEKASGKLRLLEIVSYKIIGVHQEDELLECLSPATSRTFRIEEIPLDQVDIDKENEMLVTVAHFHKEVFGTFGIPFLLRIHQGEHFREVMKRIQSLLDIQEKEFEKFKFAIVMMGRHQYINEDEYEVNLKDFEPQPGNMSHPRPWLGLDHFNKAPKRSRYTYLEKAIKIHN
UniProt Q06587: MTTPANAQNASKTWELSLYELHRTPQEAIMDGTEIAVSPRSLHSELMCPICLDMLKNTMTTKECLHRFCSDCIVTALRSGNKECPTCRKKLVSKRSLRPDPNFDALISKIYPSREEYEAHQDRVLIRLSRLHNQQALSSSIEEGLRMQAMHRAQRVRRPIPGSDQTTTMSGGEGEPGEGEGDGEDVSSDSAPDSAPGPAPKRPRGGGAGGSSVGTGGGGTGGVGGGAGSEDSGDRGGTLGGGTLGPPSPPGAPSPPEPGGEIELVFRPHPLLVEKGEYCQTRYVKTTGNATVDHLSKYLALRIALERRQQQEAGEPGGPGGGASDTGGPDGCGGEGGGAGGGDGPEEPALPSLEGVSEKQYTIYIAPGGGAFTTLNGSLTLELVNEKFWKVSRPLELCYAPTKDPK
UniProt P49915: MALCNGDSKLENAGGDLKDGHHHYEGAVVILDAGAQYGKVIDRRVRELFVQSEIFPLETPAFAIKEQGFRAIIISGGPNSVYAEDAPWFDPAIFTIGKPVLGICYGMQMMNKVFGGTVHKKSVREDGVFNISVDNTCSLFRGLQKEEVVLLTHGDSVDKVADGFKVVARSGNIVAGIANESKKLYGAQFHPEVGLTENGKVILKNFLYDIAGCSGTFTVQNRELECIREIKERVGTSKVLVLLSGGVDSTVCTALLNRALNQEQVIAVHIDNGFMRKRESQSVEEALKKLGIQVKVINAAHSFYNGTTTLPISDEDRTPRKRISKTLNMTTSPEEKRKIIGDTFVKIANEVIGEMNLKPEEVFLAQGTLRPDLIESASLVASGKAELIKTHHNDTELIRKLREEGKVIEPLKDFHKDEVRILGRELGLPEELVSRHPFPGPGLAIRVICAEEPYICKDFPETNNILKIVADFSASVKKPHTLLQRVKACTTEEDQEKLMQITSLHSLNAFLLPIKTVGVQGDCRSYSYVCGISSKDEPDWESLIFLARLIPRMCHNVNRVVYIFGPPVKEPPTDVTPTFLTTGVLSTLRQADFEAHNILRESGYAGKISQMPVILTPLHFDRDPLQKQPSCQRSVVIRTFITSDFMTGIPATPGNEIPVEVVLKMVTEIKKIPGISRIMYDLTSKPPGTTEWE
UniProt Q9UQR0: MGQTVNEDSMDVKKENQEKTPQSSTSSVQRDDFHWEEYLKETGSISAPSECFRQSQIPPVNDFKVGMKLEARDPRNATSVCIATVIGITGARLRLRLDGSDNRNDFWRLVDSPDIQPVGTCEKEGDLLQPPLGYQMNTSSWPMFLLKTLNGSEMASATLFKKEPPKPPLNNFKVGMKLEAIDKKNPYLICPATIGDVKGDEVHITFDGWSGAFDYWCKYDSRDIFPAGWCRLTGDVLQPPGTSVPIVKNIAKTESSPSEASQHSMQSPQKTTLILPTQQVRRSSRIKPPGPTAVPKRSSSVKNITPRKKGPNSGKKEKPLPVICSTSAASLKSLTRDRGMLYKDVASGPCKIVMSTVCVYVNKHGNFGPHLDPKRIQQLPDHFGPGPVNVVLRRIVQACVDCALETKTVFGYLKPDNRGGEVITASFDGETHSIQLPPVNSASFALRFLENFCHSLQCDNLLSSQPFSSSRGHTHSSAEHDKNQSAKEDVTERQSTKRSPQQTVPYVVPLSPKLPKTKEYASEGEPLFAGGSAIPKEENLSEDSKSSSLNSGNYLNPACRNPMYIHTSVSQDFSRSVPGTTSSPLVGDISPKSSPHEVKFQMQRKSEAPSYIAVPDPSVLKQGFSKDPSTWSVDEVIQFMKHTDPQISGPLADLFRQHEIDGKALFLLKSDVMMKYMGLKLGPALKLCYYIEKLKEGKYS
UniProt P63208: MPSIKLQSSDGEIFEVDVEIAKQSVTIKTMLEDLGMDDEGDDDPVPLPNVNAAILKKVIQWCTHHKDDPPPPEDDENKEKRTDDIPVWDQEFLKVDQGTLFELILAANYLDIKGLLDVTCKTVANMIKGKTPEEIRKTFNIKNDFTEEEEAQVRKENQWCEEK
UniProt Q5H9F3: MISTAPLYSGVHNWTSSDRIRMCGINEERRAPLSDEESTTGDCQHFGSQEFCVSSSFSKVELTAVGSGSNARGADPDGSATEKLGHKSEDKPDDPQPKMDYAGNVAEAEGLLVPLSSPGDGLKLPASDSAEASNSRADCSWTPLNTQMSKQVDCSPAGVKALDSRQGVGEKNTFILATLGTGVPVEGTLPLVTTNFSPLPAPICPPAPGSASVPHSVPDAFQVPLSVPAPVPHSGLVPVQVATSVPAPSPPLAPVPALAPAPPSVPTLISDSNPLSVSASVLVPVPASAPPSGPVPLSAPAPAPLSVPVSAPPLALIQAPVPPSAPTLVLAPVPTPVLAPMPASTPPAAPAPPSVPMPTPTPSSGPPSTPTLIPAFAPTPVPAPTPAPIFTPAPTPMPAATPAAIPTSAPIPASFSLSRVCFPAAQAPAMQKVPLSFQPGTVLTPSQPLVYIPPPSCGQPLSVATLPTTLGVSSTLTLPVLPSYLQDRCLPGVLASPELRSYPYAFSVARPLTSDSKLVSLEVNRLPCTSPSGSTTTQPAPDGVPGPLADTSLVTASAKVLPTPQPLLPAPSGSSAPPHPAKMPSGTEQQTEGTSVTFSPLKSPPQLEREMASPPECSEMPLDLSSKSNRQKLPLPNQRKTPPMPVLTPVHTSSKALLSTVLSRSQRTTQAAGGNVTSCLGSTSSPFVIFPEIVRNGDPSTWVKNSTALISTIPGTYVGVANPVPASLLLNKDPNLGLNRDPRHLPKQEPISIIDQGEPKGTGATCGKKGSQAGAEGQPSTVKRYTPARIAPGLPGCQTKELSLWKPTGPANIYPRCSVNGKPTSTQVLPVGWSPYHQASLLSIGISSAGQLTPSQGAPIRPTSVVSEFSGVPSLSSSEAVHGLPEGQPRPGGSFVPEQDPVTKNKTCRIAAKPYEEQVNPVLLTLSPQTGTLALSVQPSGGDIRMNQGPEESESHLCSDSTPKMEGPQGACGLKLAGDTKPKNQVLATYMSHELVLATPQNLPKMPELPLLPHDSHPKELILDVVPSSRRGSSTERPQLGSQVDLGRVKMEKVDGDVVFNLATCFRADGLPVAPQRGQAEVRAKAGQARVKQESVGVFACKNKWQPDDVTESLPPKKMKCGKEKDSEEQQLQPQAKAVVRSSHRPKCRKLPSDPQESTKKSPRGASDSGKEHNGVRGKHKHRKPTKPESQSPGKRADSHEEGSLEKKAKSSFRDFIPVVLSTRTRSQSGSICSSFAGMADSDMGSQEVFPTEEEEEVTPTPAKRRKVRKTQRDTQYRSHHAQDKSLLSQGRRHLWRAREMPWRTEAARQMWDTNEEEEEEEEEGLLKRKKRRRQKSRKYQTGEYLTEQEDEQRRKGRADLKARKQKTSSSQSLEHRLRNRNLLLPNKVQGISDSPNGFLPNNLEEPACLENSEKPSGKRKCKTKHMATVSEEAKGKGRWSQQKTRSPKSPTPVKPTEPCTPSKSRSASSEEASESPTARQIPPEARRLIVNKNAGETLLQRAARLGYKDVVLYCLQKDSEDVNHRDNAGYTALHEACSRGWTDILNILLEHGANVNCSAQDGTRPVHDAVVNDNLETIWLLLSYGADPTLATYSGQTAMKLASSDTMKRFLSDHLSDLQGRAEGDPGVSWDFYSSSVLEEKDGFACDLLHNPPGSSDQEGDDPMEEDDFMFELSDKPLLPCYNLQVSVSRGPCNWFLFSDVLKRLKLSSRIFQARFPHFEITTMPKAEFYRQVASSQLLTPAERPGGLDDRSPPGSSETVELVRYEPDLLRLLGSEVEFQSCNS
UniProt Q9HC52: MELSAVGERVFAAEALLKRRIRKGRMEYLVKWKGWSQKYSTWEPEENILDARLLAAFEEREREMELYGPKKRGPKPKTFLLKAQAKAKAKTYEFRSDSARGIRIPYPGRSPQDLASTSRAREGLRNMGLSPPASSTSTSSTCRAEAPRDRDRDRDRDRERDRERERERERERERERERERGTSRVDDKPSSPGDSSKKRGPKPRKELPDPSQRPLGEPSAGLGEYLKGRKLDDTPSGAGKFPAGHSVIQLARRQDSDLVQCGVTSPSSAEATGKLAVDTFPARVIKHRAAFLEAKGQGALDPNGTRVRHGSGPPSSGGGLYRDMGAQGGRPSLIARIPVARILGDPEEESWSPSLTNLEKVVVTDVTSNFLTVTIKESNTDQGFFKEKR

Assays:
GFP-RING1B [1] = target: GFP-RING1B (UniProt Q99496); assay: affinity purification with mass spectrometry; GFP-Trap magnetic agarose pull outs on nuclear extracts of K562 cells stably expressing the GFP fusion, 1 h at 4°C, six washes in TBS with 0.3% IGEPAL CA-630; bound fraction analysed by LC-MS/MS; for GFP-RING1B and PCGF1-GFP also from cells treated with DMSO or P22077
PCGF1-GFP = PCGF1-GFP (UniProt Q9BSM1); assay: as above
[2] = target: GFP-TEV-FLAG-3C-USP7 fusion (UniProt Q93009); assay: as above
[3] = target: T1, KDM2B-GFP (wild-type KDM2B, long form) (UniProt Q8NHM5); assay: as above
T1 sequence: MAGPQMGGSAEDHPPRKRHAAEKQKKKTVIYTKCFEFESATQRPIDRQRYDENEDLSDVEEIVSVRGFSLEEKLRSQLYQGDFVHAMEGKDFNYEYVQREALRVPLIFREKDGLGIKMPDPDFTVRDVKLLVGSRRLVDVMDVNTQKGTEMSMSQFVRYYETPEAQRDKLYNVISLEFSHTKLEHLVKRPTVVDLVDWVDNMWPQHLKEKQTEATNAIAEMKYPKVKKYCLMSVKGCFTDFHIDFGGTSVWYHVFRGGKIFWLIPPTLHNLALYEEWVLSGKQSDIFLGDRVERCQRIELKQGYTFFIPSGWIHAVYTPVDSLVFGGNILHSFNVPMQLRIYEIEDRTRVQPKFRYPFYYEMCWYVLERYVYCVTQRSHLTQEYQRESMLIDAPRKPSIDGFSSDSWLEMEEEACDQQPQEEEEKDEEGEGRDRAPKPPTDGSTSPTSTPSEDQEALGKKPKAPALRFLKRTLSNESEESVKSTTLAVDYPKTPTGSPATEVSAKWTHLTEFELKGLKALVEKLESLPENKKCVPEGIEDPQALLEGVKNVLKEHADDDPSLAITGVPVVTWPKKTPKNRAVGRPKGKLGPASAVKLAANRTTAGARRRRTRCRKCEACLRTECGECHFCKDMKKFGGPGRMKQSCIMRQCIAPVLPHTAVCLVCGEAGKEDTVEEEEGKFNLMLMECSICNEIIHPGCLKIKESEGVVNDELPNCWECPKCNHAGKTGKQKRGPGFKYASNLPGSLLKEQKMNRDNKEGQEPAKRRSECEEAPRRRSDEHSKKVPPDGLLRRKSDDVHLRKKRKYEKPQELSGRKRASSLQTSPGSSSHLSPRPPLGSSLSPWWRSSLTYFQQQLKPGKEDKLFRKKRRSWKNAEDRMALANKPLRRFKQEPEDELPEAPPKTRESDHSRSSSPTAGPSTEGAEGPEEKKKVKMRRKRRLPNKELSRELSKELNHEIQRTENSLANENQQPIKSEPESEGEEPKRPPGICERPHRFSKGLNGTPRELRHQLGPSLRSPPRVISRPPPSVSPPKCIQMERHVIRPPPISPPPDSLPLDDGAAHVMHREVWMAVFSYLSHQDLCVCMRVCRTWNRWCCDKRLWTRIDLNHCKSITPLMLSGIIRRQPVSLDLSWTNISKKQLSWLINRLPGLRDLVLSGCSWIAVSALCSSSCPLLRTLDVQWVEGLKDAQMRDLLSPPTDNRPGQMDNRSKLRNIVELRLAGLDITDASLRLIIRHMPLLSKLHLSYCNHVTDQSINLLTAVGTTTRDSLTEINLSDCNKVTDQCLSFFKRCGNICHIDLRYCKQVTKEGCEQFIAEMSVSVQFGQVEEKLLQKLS

GFP-RING1B [4] = target: GFP-RING1B (UniProt Q99496); assay: condition: only cells treated with the USP7 inhibitor P22077; affinity purification with mass spectrometry; GFP pull outs on nuclear extracts of K562 GFP-RING1B cells treated with the USP7 inhibitor P22077, LC-MS/MS, label-free quantification
KDM2BΔ(CxxC)-GFP = KDM2BΔ(CxxC)-GFP (UniProt Q8NHM5); assay: affinity purification with mass spectrometry; GFP-Trap magnetic agarose pull outs on nuclear extracts of K562 cells stably expressing the GFP fusion, 1 h at 4°C, six washes in TBS with 0.3% IGEPAL CA-630; bound fraction analysed by LC-MS/MS; for GFP-RING1B and PCGF1-GFP also from cells treated with DMSO or P22077
KDM2BΔ(LRR)-GFP = KDM2BΔ(LRR)-GFP (UniProt Q8NHM5); assay: as above
KDM2BΔ(PHD)-GFP = KDM2BΔ(PHD)-GFP (UniProt Q8NHM5); assay: as above
[5] = target: GFP-TEV-FLAG-3C-USP7 fusion (UniProt Q93009); assay: as above; remark: listed apart in the source

With “USP7 (ubiquitin-specific peptidase 7), endogenous (from UniProt Q93009 1-1102) (enzyme)” the binding (GFP-RING1B [1]) was “binds” and the binding (PCGF1-GFP) was “binds”.

For “RING1A, endogenous (from UniProt Q06587 1-406)”, the binding (GFP-RING1B [1]) was “no binding”, the binding [2] was “binds” and the binding [3] was “binds”. For the same molecule, the binding (PCGF1-GFP) was “binds”.

In the case of “PCGF1, endogenous (from UniProt Q9BSM1 1-259)”, the binding [2] is reported as “binds”.

In the case of “GMPS, endogenous (from UniProt P49915 1-693) (enzyme)”, the binding [2] is reported as “binds”.

In the case of “SCML2, endogenous (from UniProt Q9UQR0 1-700)”, the binding (GFP-RING1B [4]) is reported as “no binding”, the binding (GFP-RING1B [1]) is reported as “binds” and the binding [2] is reported as “binds”.

For “SKP1, endogenous (from UniProt P63208 1-163)”, the binding [2] was “binds”, the binding [3] was “binds” and the binding (KDM2BΔ(CxxC)-GFP) was “binds”. For the same molecule, the binding (KDM2BΔ(LRR)-GFP) was “binds” and the binding (KDM2BΔ(PHD)-GFP) was “binds”.

For “BCOR, endogenous (from UniProt Q6W2J9 1-1755)”, the binding [2] was “binds”.

In the case of “BCORL1, endogenous (from UniProt Q5H9F3 1-1785)”, the binding [2] is reported as “binds”.

In the case of “CBX8, endogenous (from UniProt Q9HC52 1-389)”, the binding [2] is reported as “binds”.

“RING1B, endogenous (from UniProt Q99496 1-336)” was tested, and the binding [2] was “binds”.

B1: RYBP, endogenous (protein, UniProt Q8N488 1-228)
chain: MTMGDKKSPTRPKRQAKPAADEGFWDCSVCTFRNSAEAFKCSICDVRKGTSTRKPRINSQLVAQQVAQQYATPPPPKKEKKEKVEKQDKEKPEKDKEISPSVTKKNTNKKTKPKSDILKDPPSEANSIQSANATTKTSETNHTSRPRLKNVDRSTAQQLAVTVGNVTVIITDFKEKTRSSSTSSSTVTSSAGSEQQNQSSSGSESTDKGSSRSSTPKGDMSAVNDESF
With B1 the binding [5] was “binds”.

B2: YAF2, endogenous (protein, UniProt Q8IY57 1-180)
chain: MGDKKSPTRPKRQPKPSSDEGYWDCSVCTFRNSAEAFKCMMCDVRKGTSTRKPRPVSQLVAQQVTQQFVPPTQSKKEKKDKVEKEKSEKETTSKKNSHKKTRPRLKNVDRSSAQHLEVTVGDLTVIITDFKEKTKSPPASSAASADQHSQSGSSSDNTERGMSRSSSPRGEASSLNGESH
For B2, the binding [5] was “binds”.

B3: FBXO38, endogenous (protein, UniProt Q6PIJ6 1-1188)
chain: MGPRKKSVKTCIMNNEIPEEMTADETKDYMNQLSHEVLCHIFRYLPLQDIMCMECLSRKLKEAVTLYLRVVRVVDLCAGRWWEYMPSGFTDASFLTLLKKMPDVEQLYGLHPRYLERRRVRGHEAFSIPGVLEALQACPNLVGVETSHLELVESIWTYMPHVHILGKFRNRNGAFPIPPENKLKIPIGAKIQTLHLVGVNVPEIPCIPMLRHLYMKWVRLTKPQPFKDFLCISLRTFVMRNCAGPTNSLKYVPLVTGLASARNLEHLEMVRVPFLGGLIQHVVEDSWRSGGFRNLHTIVLGACKNALEVDLGYLIITAARRLHEVRIQPSLTKDGVFSALKMAELEFPQFETLHLGYVDEFLLQSRMANADLVKYGLADVVENPGIITDIGMKAVNEVFSCIKYLAIYNCPHLHNPYNWISDHSRWTRLVDINLVRCHALKLDSFGQFIELLPSLEFISLDQMFREPPKGCARVGLSAGTGIGVSSALVSNQNSNNDDNNAQNNNANIHDNNHHHPDDSDEENDFRQDLQPGEQQFAADALNEMEDIVQEDGEVVAESGNNTPAHSQAIIPVDVDEEQAGPSGLQRVVKPTSITVHDSESDDEEDSLELQEVWIPKNGTRRYSEREEKTGESVQSRELSVSGKGKTPLRKRYNSHQMGQSKQFPLEESSCEKGCQVTSEQIKADMKAARDIPEKKKNKDVYPSCSSTTASTVGNSSSHNTASQSPDFVRTVNSGGSSEPSPTEVDVSRQCACSPGGSEDSEAMEEGDAESSVCPRCCCHRPQESQRRTSRCSDEERPSTSRACVVNGPDGTRSAFSFRTLPQGGSSGPAHDERTNGSGSGATGEDRRGSSQPESCDVQSNEDYPRRPLTRARSRLSHVLLVSESEVAKTKPRHAMKRKRTADKSTSTSDPVIEDDHVQVLVLKSKNLVGVTMTNCGITDLVLKDCPKMMFIHATRCRVLKHLKVENAPIVNRFDYAQCKKLNMDQVLDQILRMPPERNRIIYLRPMQQVDTLTLEQKLFSGPYPYHICIIHEFSNPPNVRNKVRIRSWMDTIANINQELIKYEFFPEATRSEEDLKKYPKYPWGREIYTLEGVVDGAPYSMISDFPWLRSLRAAEPNSFARYDFEDDEESTIYAPRRKGQLSADICMETIGEEISEMRQMKKGVFQRVVAIFIHYCDVNGEPVEDDYI
In the case of B3, the binding [5] is reported as “binds”.

Like-named read-outs stand apart in the source and are kept apart here. Results are given in words; binding and its absence hold for the method and conditions named. In cells and extracts the contact can be indirect. Here binding means that the protein was enriched with, or labelled near, the bait; the list need not be complete. For some assays here: No binding means not detected with the bait. For some assays here: Tags and fused reporters may be left off the sequences shown.
